Measurements as given in PubChem BioAssay AID504467 (National Center for Advancing Translational Sciences (NCATS), 2011).
Screen size: about 330,000 compounds; about 7,700 (2.3%) were called active. The inconclusive results got no clear call from the source; some entries with a clear call stand among them for comparison. The call rests on the fitted dose curve; in most records, active means well fitted inhibition curve with a large enough effect; inconclusive means small, poorly fitted or top-dose-only effect, or effect the other way; inactive means flat fitted curve, though single readings scatter. A potency beside an inconclusive call is a rough fit, not a confirmed value.
Potency means the concentration at half of the fitted maximal effect.

Assay: qHTS screen for small molecules that inhibit ELG1-dependent DNA repair in human embryonic kidney (HEK293T) cells expressing luciferase-tagged ELG1; further: nearly all actives have a fitted effect of over 55% in size
Conditions: HEK293T ELG1-luciferase reporter, luminescence, 16 h, DNA damage induced by 5-fluorouridine; series mostly up to 46.1 µM
How it was run: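 Quantitative HTS, concentration-response format. 2,000 cells/well co-treated with 5-fluorouridine and compound, 16 hr in 5% CO2 at 37 °C; ONE-Glo luminescence read after 30 min.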
With `COCCNC(=O)C(c1ccc(C)o1)N(Cc1cccs1)C(=O)c1snc(C(N)=O)c1N` (stereo unspecified) the Potency was inconclusive: 16.4 µM [inhibitor, single point]. For `O=C(Nc1cccc([N+](=O)[O-])c1)C(=O)N1CCCCC1`, the Potency was inconclusive: 14.6 µM [activator, partial curve]. In the case of `CCOC(=O)c1c(/N=C/C2=C(O)CC(C)(C)CC2=O)sc(C(C)=O)c1C`, the Potency is reported as inconclusive: 20.6 µM [activator, single point]. With `Cc1cc2ccccn2c1C(=O)c1cccc(S(=O)(=O)N2CCOCC2)c1` the Potency was inconclusive: 18.3 µM [inhibitor, single point]. With `CCC(C)[C@H](NC(=O)N1CC(=O)Nc2ccccc21)C(=O)N[C@@H](Cc1c[nH]c2ccccc12)C(=O)O` (stereo partly specified) the Potency was inconclusive: 0.517 µM [activator, single point]. With `CCOC(=O)c1c(NC(=O)COc2ncnc3ccccc23)sc(C)c1C` the Potency was inconclusive: 18.4 µM [inhibitor, partial curve, poor fit]. With `N/C(=N\OC(=O)c1cccc(C(F)(F)F)c1)c1cnccn1` the Potency was inconclusive: 9.2 µM [activator, partial curve]. In the case of `CCOc1ccc(NC(=O)CN(c2ccc([N+](=O)[O-])cc2)S(=O)(=O)c2ccccc2)cc1`, the Potency is reported as active: 10.3 µM. With `O=C(COC(=O)C1CC2C=CC1C2)Nc1ccc([N+](=O)[O-])cc1` (stereo unspecified) the Potency was inconclusive: 32.6 µM [inhibitor, single point]. For `COc1cccc(CNC(=O)c2nnn(CC(=O)Nc3cc(Cl)ccc3C)c2N)c1`, the Potency was inconclusive: 18.3 µM [activator, partial curve, poor fit]. In the case of `COC(=O)c1ccc(N=NN2CCCCC2)cc1`, the Potency is reported as inconclusive: 11.6 µM [activator, partial curve]. For `Cc1cc(=O)oc2cc(OCc3ccc(C(=O)N4CCN(c5ccc([N+](=O)[O-])cc5)CC4)cc3)ccc12`, the Potency was inconclusive: 7.31 µM [inhibitor, partial curve]. For `O=C1NN(c2ccccc2)C(=O)/C1=C/c1ccc(-c2ccc(C(=O)O)cc2)o1`, the Potency was “inactive”. In the case of `COCCNC(=O)c1ccc2c3n(nc2c1)-c1ccc(C)cc1CO3`, the Potency is reported as inconclusive: 10.3 µM [activator, partial curve]. With `O=C(O)c1ccc(-c2nc(-c3ccc(Cl)c(Cl)c3)cs2)cc1` the Potency was inconclusive: 2.59 µM [activator, full curve]. In the case of `O=C(COC(=O)C12CC3CC(CC(C3)C1)C2)Nc1ccc(OC(F)F)cc1`, the Potency is reported as inconclusive: 29.1 µM [inhibitor, single point]. In the case of `OC1CCN(Cc2cn(Cc3ccccc3)nc2-c2cc3ccccc3o2)CC1`, the Potency is reported as “inactive”. With `COC(=O)COc1cc(OCC(=O)OC)c2c(C)c(Cl)c(=O)oc2c1` the Potency was “inactive”. For `CC(C)(CNC(=S)NCCc1ccccc1)CNC(=S)NCCc1ccccc1`, the Potency was inconclusive: 29.1 µM [inhibitor, single point]. In the case of `Cc1nonc1NC(=O)CSc1nc(CCC2CCCC2)nc2ccccc12`, the Potency is reported as “inactive”. With `Oc1ccccc1-c1cc(-c2ccccc2)n[nH]1` the Potency was inconclusive: 2.91 µM [activator, full curve]. With `CC(NC(=O)C1(c2cccs2)CCOCC1)c1ccccc1` (stereo unspecified) the Potency was “inactive”. In the case of `Oc1ccc(-c2csc(-c3cccnc3)n2)c(O)c1`, the Potency is reported as inconclusive: 5.8 µM [activator, full curve]. For `Cn1c(N)c(C(=O)COC(=O)c2cc(C3CC3)nc3ccccc23)c(=O)n(C)c1=O`, the Potency was inconclusive: 20.6 µM [inhibitor, partial curve]. For `CC(C)N(C(=O)CSc1nc2ccccc2n1Cc1ccccc1)C(C)C`, the Potency was inconclusive: 20.6 µM [inhibitor, partial curve]. For `[O-]/C(=C(\C(=S)Nc1ccccc1F)[n+]1ccccc1)c1ccc(-c2ccccc2)cc1`, the Potency was “inactive”. In the case of `COc1cc(NC(=O)Nc2cccc(Cl)c2)c(C(=O)O)cc1OC`, the Potency is reported as inconclusive: 1.16 µM [inhibitor, single point]. In the case of `CCOC(=O)[C@H]1[C@H]2COc3ccccc3[C@@H]2N2C(=O)[C@@H](C)NC(=O)[C@@]12C`, the Potency is reported as “inactive”. In the case of `CCOc1ccc(OCC(=O)N2CCOCC2)cc1`, the Potency is reported as “inactive”. In the case of `N#Cc1c(/N=C/c2ccco2)oc(-c2ccccc2)c1-c1ccccc1`, the Potency is reported as “inactive”. In the case of `Cc1ccc(NS(=O)(=O)c2cccc(C(=O)N3CCCCC3)c2)cc1`, the Potency is reported as “inactive”. In the case of `COc1ccc([C@H]2CC(=O)C=C(c3ccc(C)cc3)C2)cc1`, the Potency is reported as inconclusive: 14.6 µM [activator, single point]. In the case of `Cc1nc2sccn2c1-c1nc(-c2cc3ccccc3o2)cs1`, the Potency is reported as “inactive”. In the case of `CCCc1nc2oc3c(OC)ncnc3c2c2c1COC(C)(C)C2`, the Potency is reported as inconclusive: 20.6 µM [inhibitor, single point]. For `CCN1CCN(C(=O)c2ccc3nc(-c4ccccc4)c(-c4ccccc4)nc3c2)CC1`, the Potency was “inactive”. With `Cc1ccc(C(=O)ONc2ccc(N=O)cc2)cc1` the Potency was “inactive”. In the case of `Cc1cc(NC(=O)CCCN2C(=O)/C(=C/c3ccccc3Cl)SC2=S)no1`, the Potency is reported as inconclusive: 25.9 µM [inhibitor, single point]. With `COc1cc2c(cc1OC)CN(C(=O)Cc1c(F)cccc1Cl)CC2` the Potency was “inactive”. In the case of `NC(=O)[C@@H]1CCCN1C(=O)c1ccc2oc(CCc3ccccc3)nc2c1`, the Potency is reported as inconclusive: 16.4 µM [activator, partial curve]. In the case of `O=C(Cc1ccc(Cl)cc1)Nc1ccc(N2CCN(C(=O)c3ccco3)CC2)c(Cl)c1`, the Potency is reported as active: 13 µM. For `N#Cc1ccc(CSc2nnc(-c3ccncc3)n2CCc2ccccc2)cc1`, the Potency was active: 23.1 µM. In the case of `COc1cccc(N=Nc2c(N)[nH][nH]c2=O)c1`, the Potency is reported as inconclusive: 18.4 µM [activator, partial curve]. With `Cc1noc(C)c1CSc1nc2ccccc2s1` the Potency was inconclusive: 25.9 µM [activator, single point]. For `CCCn1c(C2CCCN2c2nc(-c3cccc(Br)c3)cs2)nc2ccccc21` (stereo unspecified), the Potency was “inactive”. In the case of `COc1cc(-c2cc(C(=O)Nc3ccc(C)c(S(=O)(=O)N4CCOCC4)c3)c3ccccc3n2)cc(OC)c1OC`, the Potency is reported as active: 2.06 µM. With `O=C(Cn1cccc1)Nc1ccc(OC(F)(F)F)cc1` the Potency was inconclusive: 14.6 µM [activator, partial curve, poor fit]. For `CCOC(=O)N1CCN(C(=O)c2ccccc2NC(=O)COc2ccccc2C)CC1`, the Potency was inconclusive: 16.4 µM [inhibitor, single point]. In the case of `Cc1ccc2c(C)nc(N/C(N)=N/S(=O)(=O)c3ccc([N+](=O)[O-])cc3)nc2c1`, the Potency is reported as inconclusive: 14.6 µM [inhibitor, partial curve]. For `CN(C)S(=O)(=O)n1cc(/C=C(\NC(=O)c2ccccc2F)C(=O)NCCCn2ccnc2)c2ccccc21`, the Potency was inconclusive: 29.1 µM [inhibitor, single point]. In the case of `CCN(CC(=O)NC(C)C)Cc1nc2c(Br)cc(Br)cc2c(=O)[nH]1`, the Potency is reported as “inactive”. With `OC(c1cc(C(F)(F)F)nc2c(C(F)(F)F)cccc12)C1CCCCN1` (stereo unspecified) the Potency was inconclusive: 35.5 µM [inhibitor, single point]. With `CCCCn1cnc(C(=O)OCC)c1N` the Potency was inconclusive: 20.6 µM [activator, single point]. For `C(=N\Nc1nncc2ccccc12)/c1ccccc1`, the Potency was inconclusive: 4.61 µM [activator, partial curve, poor fit]. In the case of `CC(=O)N1CCc2c(sc3c2c(=O)n(-c2ccccc2)c(=O)n3CC(=O)NCC2CCCO2)C1` (stereo unspecified), the Potency is reported as inconclusive: 25.9 µM [activator, partial curve, poor fit]. With `COc1cc(Cn2c(N)c(C#N)c3nc4ccccc4nc32)cc(OC)c1` the Potency was inconclusive: 5.8 µM [inhibitor, full curve]. For `C/C(=N\NC(=O)c1c([N+](=O)[O-])c(C)nn1C)c1ccc(NC(=O)c2ccc(C)o2)cc1`, the Potency was inconclusive: 10.3 µM [activator, partial curve]. With `O=C(COc1ccccc1)Nc1nc2cc3c(cc2s1)OCCO3` the Potency was “inactive”. For `O=S(=O)(NCc1cc(-c2ccc(Cl)cc2)no1)c1ccccc1`, the Potency was “inactive”. In the case of `COc1cccc(OCC(=O)NNC(=S)Nc2ccc(Cl)cc2Cl)c1`, the Potency is reported as “inactive”. For `CC(=O)c1ccc(N2C(=O)CC(N3CCN(S(=O)(=O)c4ccc(C)c(C)c4)CC3)C2=O)cc1` (stereo unspecified), the Potency was inconclusive: 16.4 µM [activator, single point]. For `N#CC(C(=O)NC1CC1)c1nc2ccccc2nc1N1CCCC1` (stereo unspecified), the Potency was inconclusive: 29.1 µM [inhibitor, single point]. For `COC(=O)c1cccc(NC(=O)CSc2nnnn2C)c1`, the Potency was inconclusive: 16.4 µM [activator, partial curve, poor fit]. For `COc1cccc(OCCn2cc(C(C)=O)c3ccccc32)c1`, the Potency was inconclusive: 6.51 µM [inhibitor, single point]. In the case of `CC(C)(C)Cc1nnc(NC(=O)Cc2cccs2)s1`, the Potency is reported as “inactive”. For `Cc1cc(Cl)ccc1OCC(=O)NCCCN1CCOCC1`, the Potency was “inactive”. In the case of `COc1ccc([N+](=O)[O-])cc1NS(=O)(=O)Cc1ccccc1`, the Potency is reported as “inactive”. For `CCN(CC)c1ccc2cc(S(=O)(=O)c3ccc(C)cc3)c(=O)oc2c1`, the Potency was “inactive”. For `CCOC(=O)C1(CCOC)CCN(Cc2ccc3nonc3c2)CC1`, the Potency was inconclusive: 23.1 µM [inhibitor, single point]. With `CC1=CC=CC2=NC(=O)CC(C)(C(=O)N(CC(=O)NC3CCCC3)c3ccc(F)cc3)N12` (stereo unspecified) the Potency was “inactive”. For `CC(=O)c1cccc(NCC(=O)c2ccc(C)c([N+](=O)[O-])c2)c1`, the Potency was “inactive”. For `COc1ccc(NC(=O)Nc2nnc(-c3ccco3)s2)cc1`, the Potency was inconclusive: 2.31 µM [activator, partial curve].
